The experiment addresses c-Myc (human (endogenous in PANC-1 and AsPC-1)) (UniProt P01106). Description: affinity purification with mass spectrometry; proteomic analysis of c-Myc antibody co-IP samples from control and HDAC5-knockdown PANC-1 cells.

By UniProt entry, the sequences of proteins in these tests, tags left out.
UniProt P01106: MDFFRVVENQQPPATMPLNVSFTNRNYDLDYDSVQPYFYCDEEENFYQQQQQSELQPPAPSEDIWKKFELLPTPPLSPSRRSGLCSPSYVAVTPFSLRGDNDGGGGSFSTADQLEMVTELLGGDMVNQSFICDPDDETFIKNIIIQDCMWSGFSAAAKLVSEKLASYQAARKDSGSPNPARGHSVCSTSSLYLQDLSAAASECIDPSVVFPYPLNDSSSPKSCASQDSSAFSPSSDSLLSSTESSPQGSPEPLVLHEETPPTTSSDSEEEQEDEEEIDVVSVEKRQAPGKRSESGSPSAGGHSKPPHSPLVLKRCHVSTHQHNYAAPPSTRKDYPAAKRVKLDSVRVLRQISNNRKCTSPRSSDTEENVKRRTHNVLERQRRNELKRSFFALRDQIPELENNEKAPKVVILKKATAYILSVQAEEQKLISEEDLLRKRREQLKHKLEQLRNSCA
UniProt P46934: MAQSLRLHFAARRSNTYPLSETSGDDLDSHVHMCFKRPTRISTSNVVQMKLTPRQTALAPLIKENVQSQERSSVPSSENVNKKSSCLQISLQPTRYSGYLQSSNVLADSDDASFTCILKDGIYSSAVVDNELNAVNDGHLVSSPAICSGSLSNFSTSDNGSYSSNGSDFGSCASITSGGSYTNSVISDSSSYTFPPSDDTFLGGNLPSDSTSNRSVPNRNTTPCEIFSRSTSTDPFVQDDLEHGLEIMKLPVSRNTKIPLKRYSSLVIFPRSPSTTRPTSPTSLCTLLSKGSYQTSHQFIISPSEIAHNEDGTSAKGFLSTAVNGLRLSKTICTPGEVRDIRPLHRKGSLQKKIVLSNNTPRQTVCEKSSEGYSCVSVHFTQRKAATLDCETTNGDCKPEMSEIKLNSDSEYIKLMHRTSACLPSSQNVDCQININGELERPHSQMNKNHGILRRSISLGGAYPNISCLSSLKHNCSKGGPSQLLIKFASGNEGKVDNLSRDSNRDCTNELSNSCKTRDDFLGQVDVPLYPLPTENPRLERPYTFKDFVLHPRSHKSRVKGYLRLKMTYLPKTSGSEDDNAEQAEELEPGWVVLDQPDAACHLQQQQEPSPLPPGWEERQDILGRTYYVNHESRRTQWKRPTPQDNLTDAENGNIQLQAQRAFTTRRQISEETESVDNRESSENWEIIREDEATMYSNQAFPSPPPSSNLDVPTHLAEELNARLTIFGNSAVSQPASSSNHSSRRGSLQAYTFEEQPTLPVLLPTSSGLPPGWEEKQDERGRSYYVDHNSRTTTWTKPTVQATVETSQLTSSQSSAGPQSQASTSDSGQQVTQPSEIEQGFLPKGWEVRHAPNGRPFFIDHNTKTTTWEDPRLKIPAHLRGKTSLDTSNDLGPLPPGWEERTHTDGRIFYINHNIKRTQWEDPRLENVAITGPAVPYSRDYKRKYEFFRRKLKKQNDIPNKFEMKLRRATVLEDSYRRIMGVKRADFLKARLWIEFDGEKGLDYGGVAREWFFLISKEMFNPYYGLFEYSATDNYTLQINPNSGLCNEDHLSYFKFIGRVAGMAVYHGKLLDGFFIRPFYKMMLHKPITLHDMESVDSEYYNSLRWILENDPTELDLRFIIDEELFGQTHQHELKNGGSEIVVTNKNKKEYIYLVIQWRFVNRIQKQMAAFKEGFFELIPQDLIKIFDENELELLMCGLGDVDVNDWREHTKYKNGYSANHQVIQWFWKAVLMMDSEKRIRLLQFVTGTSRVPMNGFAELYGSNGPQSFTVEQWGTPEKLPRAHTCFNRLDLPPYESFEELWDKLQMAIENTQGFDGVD
UniProt Q9UNE7: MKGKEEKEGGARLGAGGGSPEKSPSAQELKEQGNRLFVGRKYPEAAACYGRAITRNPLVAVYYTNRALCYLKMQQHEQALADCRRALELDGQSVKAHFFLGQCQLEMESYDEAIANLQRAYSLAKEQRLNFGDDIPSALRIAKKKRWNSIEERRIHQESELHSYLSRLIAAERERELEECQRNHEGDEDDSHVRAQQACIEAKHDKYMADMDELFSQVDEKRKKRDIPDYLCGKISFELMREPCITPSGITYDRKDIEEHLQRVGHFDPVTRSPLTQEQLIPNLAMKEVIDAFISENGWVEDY
UniProt Q9UPN9: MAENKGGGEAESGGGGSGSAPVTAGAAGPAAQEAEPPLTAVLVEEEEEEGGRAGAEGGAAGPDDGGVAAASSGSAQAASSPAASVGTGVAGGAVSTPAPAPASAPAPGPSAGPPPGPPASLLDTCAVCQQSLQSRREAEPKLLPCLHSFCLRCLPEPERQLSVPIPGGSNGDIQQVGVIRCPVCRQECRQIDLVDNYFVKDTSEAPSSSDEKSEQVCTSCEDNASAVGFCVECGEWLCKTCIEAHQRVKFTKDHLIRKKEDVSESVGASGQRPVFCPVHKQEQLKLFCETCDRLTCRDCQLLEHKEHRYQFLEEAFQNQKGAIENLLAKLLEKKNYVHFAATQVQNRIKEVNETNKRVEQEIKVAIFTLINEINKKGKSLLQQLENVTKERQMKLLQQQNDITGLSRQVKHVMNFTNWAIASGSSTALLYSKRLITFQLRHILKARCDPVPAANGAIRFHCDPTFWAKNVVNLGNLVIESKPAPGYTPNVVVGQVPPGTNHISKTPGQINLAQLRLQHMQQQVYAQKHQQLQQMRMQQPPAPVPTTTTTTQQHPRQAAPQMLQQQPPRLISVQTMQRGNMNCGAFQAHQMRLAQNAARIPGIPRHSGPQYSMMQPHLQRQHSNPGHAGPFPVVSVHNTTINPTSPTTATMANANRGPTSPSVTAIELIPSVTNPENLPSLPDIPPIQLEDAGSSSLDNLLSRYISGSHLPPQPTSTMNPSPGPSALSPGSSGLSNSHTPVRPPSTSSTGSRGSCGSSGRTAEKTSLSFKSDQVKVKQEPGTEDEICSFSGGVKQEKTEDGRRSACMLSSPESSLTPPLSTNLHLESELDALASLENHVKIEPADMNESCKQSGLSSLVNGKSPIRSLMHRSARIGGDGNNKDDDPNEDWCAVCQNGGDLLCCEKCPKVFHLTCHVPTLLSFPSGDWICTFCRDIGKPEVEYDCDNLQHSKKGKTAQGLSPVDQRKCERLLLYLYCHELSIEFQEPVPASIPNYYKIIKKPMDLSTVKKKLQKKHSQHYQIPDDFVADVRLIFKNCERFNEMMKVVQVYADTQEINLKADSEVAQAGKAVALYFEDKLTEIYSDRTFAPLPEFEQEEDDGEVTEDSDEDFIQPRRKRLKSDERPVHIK

No constants are given. Whether binding was seen depends on the method and setting. Binding seen in cells or lysates may run through a third protein. These calls come from enrichment with a bait or labelling near it, and not all partners need be listed.

For the substance “NEDD4 (from UniProt P46934 1-1319) (enzyme)”, the binding entry is “binds”. Under “STIP1 homology and U-Box containing protein 1 (STUB1) (from UniProt Q9UNE7 1-303) (enzyme)” stands “binds”; under “Tripartite motif containing 33 (TRIM33) (from UniProt Q9UPN9 1-1127) (enzyme)”, “binds”.

The values are drawn from PMC12867140.
